Assay [1] concerns the target nucleolin (endogenous, normal lymphoblastoid cells) (human (endogenous in normal lymphoblastoid cells)) (UniProt P19338). Put plainly: co-IP; endogenous proteins; extracts from normal lymphoblastoid cells with or without IR; immunoprecipitation with an antibody to the target or normal rabbit IgG; Western blot. On the technique in general: Immunoblotting shows a protein as a band on a membrane.

By UniProt entry, the sequences of proteins in these tests, tags left out.
UniProt P15927: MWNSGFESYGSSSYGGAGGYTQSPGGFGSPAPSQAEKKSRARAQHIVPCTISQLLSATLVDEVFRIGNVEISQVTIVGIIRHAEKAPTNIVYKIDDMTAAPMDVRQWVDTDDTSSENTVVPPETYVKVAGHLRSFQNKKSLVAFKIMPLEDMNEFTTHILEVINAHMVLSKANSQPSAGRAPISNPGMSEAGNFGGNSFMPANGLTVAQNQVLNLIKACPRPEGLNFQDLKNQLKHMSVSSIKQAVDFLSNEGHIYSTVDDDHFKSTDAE
UniProt P12956: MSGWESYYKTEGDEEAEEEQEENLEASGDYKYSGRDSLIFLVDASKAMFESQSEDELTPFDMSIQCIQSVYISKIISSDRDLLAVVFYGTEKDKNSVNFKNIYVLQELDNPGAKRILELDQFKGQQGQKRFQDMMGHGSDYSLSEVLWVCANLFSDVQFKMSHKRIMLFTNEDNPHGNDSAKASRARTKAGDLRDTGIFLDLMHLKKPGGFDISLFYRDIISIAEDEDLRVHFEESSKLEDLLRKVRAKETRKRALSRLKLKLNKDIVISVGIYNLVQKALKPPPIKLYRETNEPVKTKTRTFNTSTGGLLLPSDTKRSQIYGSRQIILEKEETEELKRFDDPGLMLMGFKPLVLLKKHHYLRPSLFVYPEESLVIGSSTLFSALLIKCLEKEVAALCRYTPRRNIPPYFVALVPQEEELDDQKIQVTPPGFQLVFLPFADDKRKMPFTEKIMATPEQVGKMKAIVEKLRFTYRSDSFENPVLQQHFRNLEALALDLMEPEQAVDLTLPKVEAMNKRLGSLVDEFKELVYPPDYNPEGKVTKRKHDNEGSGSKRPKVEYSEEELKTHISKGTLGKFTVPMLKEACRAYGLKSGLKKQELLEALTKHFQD
UniProt O60934: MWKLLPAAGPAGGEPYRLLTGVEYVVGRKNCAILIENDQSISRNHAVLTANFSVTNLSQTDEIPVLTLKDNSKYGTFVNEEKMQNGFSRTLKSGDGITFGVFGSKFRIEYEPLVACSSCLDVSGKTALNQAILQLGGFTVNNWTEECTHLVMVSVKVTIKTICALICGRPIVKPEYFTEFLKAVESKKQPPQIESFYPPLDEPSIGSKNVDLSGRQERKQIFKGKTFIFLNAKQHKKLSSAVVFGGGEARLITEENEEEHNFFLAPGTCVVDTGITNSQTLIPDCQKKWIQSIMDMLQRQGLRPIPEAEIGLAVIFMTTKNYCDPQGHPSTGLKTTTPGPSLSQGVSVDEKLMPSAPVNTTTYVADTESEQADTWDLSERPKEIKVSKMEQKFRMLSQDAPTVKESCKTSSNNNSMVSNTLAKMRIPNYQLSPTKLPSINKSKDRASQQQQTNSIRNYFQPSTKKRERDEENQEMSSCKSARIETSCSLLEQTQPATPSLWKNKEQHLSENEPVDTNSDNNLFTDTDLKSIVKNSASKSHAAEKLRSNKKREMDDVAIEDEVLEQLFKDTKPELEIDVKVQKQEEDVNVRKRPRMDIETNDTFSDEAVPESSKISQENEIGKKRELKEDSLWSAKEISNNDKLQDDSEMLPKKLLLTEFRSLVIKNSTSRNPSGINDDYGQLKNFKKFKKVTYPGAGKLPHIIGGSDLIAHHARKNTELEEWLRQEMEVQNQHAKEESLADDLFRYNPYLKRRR

Assay [2] addresses GST-fused human H2AX (wild type) (human) (UniProt P16104). Put plainly: pull-down; purified GST-fused histone as bait; nuclear extract of irradiated or un-irradiated HeLa cells; Western blot; only the target purified.

These are yes or no findings as the source states them, for the method shown. Binding seen in cells or lysates may run through a third protein. Some binding calls cover weakened binding; strength is not graded here.

Turning to “RPA34 (endogenous) (from UniProt P15927 1-270)”, the binding result in assay [1] is “binds”. “KU70 (endogenous) (from UniProt P12956 1-609)”: the binding result in assay [1] is listed as “binds”.

For the substance “NBS1 (endogenous, HeLa nuclear extract) (from UniProt O60934 1-754)”, in assay [2], the binding result is reported as “no binding”.

On to “NBS1 (endogenous, normal lymphoblastoid cells) (from UniProt O60934 1-754)”, for which, in assay [1], the binding entry is listed as “binds”.

Source of the values: paper PMC3492271.
